# Source: the supplement of paper PMC11438910
# The other results are listed elsewhere or left out. Only a few entries rise above the background.
# B1: 4-173.5 (protein)
# chain 1: QLQLQESGPGLVKPSETLSLTCAVSGDSISSNYWSWIRQPPGKGLEWIGRISDGGGSTDYNPSLKSRVTISTDTSKNQFSLKLNSVTAADTAVYFCARGSYRVDYWGQGVLVTVSS
# chain 2: QAALTQPPSMSGSPGQSVTISCTGASSDIGGYNRVSWYQQHPANAPKLMIYDVSKRPSGVSDRFSGSKSGNTASLTISGLQADDEADYYCSSYAHINTALFGGGTRLTVL
# How the values were obtained:
# Assay in all cases: fluorescence intensity of antibody binding to polysaccharide-coupled beads; higher = stronger binding
# [1] = biological target: pneumococcal polysaccharide Pn28A
# [2] = biological target: pneumococcal polysaccharide Pn28F
# [3] = biological target: pneumococcal polysaccharide Pn29
# [4] = biological target: pneumococcal polysaccharide Pn3
# [5] = biological target: pneumococcal polysaccharide Pn31
# [6] = biological target: pneumococcal polysaccharide Pn32A
# [7] = biological target: pneumococcal polysaccharide Pn32F
# [8] = biological target: pneumococcal polysaccharide Pn33A
# [9] = biological target: pneumococcal polysaccharide Pn33B
# [10] = biological target: pneumococcal polysaccharide Pn33C
# [11] = biological target: pneumococcal polysaccharide Pn33D
# [12] = biological target: pneumococcal polysaccharide Pn33F
# [13] = biological target: pneumococcal polysaccharide Pn34
# [14] = biological target: pneumococcal polysaccharide Pn35A
# [15] = biological target: pneumococcal polysaccharide Pn35B
# [16] = biological target: pneumococcal polysaccharide Pn35C
# [17] = biological target: pneumococcal polysaccharide Pn35F
# [18] = biological target: pneumococcal polysaccharide Pn36
# [19] = biological target: pneumococcal polysaccharide Pn37
# [20] = biological target: pneumococcal polysaccharide Pn38
# [21] = biological target: pneumococcal polysaccharide Pn39
# [22] = biological target: pneumococcal polysaccharide Pn4
# [23] = biological target: pneumococcal polysaccharide Pn40
# [24] = biological target: pneumococcal polysaccharide Pn41A
# [25] = antibody concentration 2337.65 ng/mL
# [26] = antibody concentration 12500 ng/mL
# [27] = antibody concentration 0.1 ng/mL
# [28] = antibody concentration 0.534724 ng/mL
# [29] = antibody concentration 2.8593 ng/mL
# [30] = antibody concentration 15.2894 ng/mL
# [31] = antibody concentration 81.7561 ng/mL
# [32] = antibody concentration 437.17 ng/mL
binder,measurement,setting,value
B1,fluorescence intensity,[1]; [25],634 MFI
same,fluorescence intensity,[1]; [26],1620 MFI
same,fluorescence intensity,[2]; [27],29 MFI
same,fluorescence intensity,[2]; [28],29.8 MFI
same,fluorescence intensity,[2]; [29],29.5 MFI
same,fluorescence intensity,[2]; [30],35 MFI
same,fluorescence intensity,[2]; [31],53.8 MFI
same,fluorescence intensity,[2]; [32],205 MFI
same,fluorescence intensity,[2]; [25],955 MFI
same,fluorescence intensity,[2]; [26],2110 MFI
same,fluorescence intensity,[3]; [27],17 MFI
same,fluorescence intensity,[3]; [28],17 MFI
same,fluorescence intensity,[3]; [29],23.2 MFI
same,fluorescence intensity,[3]; [30],74.8 MFI
same,fluorescence intensity,[3]; [31],338 MFI
same,fluorescence intensity,[3]; [32],1400 MFI
same,fluorescence intensity,[3]; [25],3500 MFI
same,fluorescence intensity,[3]; [26],5080 MFI
same,fluorescence intensity,[4]; [27],13.5 MFI
same,fluorescence intensity,[4]; [28],12.5 MFI
same,fluorescence intensity,[4]; [29],13.5 MFI
same,fluorescence intensity,[4]; [30],14.8 MFI
same,fluorescence intensity,[4]; [31],14 MFI
same,fluorescence intensity,[4]; [32],16 MFI
same,fluorescence intensity,[4]; [25],20 MFI
same,fluorescence intensity,[4]; [26],40 MFI
same,fluorescence intensity,[5]; [27],15 MFI
same,fluorescence intensity,[5]; [28],13.8 MFI
same,fluorescence intensity,[5]; [29],16.8 MFI
same,fluorescence intensity,[5]; [30],27 MFI
same,fluorescence intensity,[5]; [31],108 MFI
same,fluorescence intensity,[5]; [32],476 MFI
same,fluorescence intensity,[5]; [25],1380 MFI
same,fluorescence intensity,[5]; [26],2170 MFI
same,fluorescence intensity,[6]; [27],18 MFI
same,fluorescence intensity,[6]; [28],16.5 MFI
same,fluorescence intensity,[6]; [29],17.5 MFI
same,fluorescence intensity,[6]; [30],18 MFI
same,fluorescence intensity,[6]; [31],23 MFI
same,fluorescence intensity,[6]; [32],52.5 MFI
same,fluorescence intensity,[6]; [25],279 MFI
same,fluorescence intensity,[6]; [26],918 MFI
same,fluorescence intensity,[7]; [27],28.5 MFI
same,fluorescence intensity,[7]; [28],27 MFI
same,fluorescence intensity,[7]; [29],25.8 MFI
same,fluorescence intensity,[7]; [30],30 MFI
same,fluorescence intensity,[7]; [31],35.5 MFI
same,fluorescence intensity,[7]; [32],62.5 MFI
same,fluorescence intensity,[7]; [25],214 MFI
same,fluorescence intensity,[7]; [26],700 MFI
same,fluorescence intensity,[8]; [27],18 MFI
same,fluorescence intensity,[8]; [28],19 MFI
same,fluorescence intensity,[8]; [29],19 MFI
same,fluorescence intensity,[8]; [30],17.5 MFI
same,fluorescence intensity,[8]; [31],19 MFI
same,fluorescence intensity,[8]; [32],36.8 MFI
same,fluorescence intensity,[8]; [25],159 MFI
same,fluorescence intensity,[8]; [26],782 MFI
same,fluorescence intensity,[9]; [27],18 MFI
same,fluorescence intensity,[9]; [28],18 MFI
same,fluorescence intensity,[9]; [29],19.5 MFI
same,fluorescence intensity,[9]; [30],21.5 MFI
same,fluorescence intensity,[9]; [31],39.5 MFI
same,fluorescence intensity,[9]; [32],228 MFI
same,fluorescence intensity,[9]; [25],1270 MFI
same,fluorescence intensity,[9]; [26],2380 MFI
same,fluorescence intensity,[10]; [27],20 MFI
same,fluorescence intensity,[10]; [28],20 MFI
same,fluorescence intensity,[10]; [29],23.5 MFI
same,fluorescence intensity,[10]; [30],53.5 MFI
same,fluorescence intensity,[10]; [31],348 MFI
same,fluorescence intensity,[10]; [32],1540 MFI
same,fluorescence intensity,[10]; [25],4580 MFI
same,fluorescence intensity,[10]; [26],6590 MFI
same,fluorescence intensity,[11]; [27],17.2 MFI
same,fluorescence intensity,[11]; [28],15 MFI
same,fluorescence intensity,[11]; [29],15 MFI
same,fluorescence intensity,[11]; [30],18 MFI
same,fluorescence intensity,[11]; [31],27.8 MFI
same,fluorescence intensity,[11]; [32],97.5 MFI
same,fluorescence intensity,[11]; [25],738 MFI
same,fluorescence intensity,[11]; [26],1740 MFI
same,fluorescence intensity,[12]; [27],13 MFI
same,fluorescence intensity,[12]; [28],12.5 MFI
same,fluorescence intensity,[12]; [29],14 MFI
same,fluorescence intensity,[12]; [30],16 MFI
same,fluorescence intensity,[12]; [31],39.5 MFI
same,fluorescence intensity,[12]; [32],201 MFI
same,fluorescence intensity,[12]; [25],1000 MFI
same,fluorescence intensity,[12]; [26],2370 MFI
same,fluorescence intensity,[13]; [27],13.5 MFI
same,fluorescence intensity,[13]; [28],13.8 MFI
same,fluorescence intensity,[13]; [29],16.2 MFI
same,fluorescence intensity,[13]; [30],22.8 MFI
same,fluorescence intensity,[13]; [31],85.5 MFI
same,fluorescence intensity,[13]; [32],502 MFI
same,fluorescence intensity,[13]; [25],1900 MFI
same,fluorescence intensity,[13]; [26],3080 MFI
same,fluorescence intensity,[14]; [27],16.5 MFI
same,fluorescence intensity,[14]; [28],17 MFI
same,fluorescence intensity,[14]; [29],22.8 MFI
same,fluorescence intensity,[14]; [30],47 MFI
same,fluorescence intensity,[14]; [31],237 MFI
same,fluorescence intensity,[14]; [32],1320 MFI
same,fluorescence intensity,[14]; [25],4280 MFI
same,fluorescence intensity,[14]; [26],6690 MFI
same,fluorescence intensity,[15]; [27],18.5 MFI
same,fluorescence intensity,[15]; [28],17 MFI
same,fluorescence intensity,[15]; [29],20 MFI
same,fluorescence intensity,[15]; [30],31.5 MFI
same,fluorescence intensity,[15]; [31],136 MFI
same,fluorescence intensity,[15]; [32],704 MFI
same,fluorescence intensity,[15]; [25],2240 MFI
same,fluorescence intensity,[15]; [26],3250 MFI
same,fluorescence intensity,[16]; [27],20 MFI
same,fluorescence intensity,[16]; [28],18 MFI
same,fluorescence intensity,[16]; [29],21.5 MFI
same,fluorescence intensity,[16]; [30],27.5 MFI
same,fluorescence intensity,[16]; [31],88 MFI
same,fluorescence intensity,[16]; [32],517 MFI
same,fluorescence intensity,[16]; [25],2270 MFI
same,fluorescence intensity,[16]; [26],3630 MFI
same,fluorescence intensity,[17]; [27],21.2 MFI
same,fluorescence intensity,[17]; [28],17.5 MFI
same,fluorescence intensity,[17]; [29],18.5 MFI
same,fluorescence intensity,[17]; [30],29.5 MFI
same,fluorescence intensity,[17]; [31],124 MFI
same,fluorescence intensity,[17]; [32],561 MFI
same,fluorescence intensity,[17]; [25],2070 MFI
same,fluorescence intensity,[17]; [26],2980 MFI
same,fluorescence intensity,[18]; [27],15 MFI
same,fluorescence intensity,[18]; [28],16.5 MFI
same,fluorescence intensity,[18]; [29],17 MFI
same,fluorescence intensity,[18]; [30],26 MFI
same,fluorescence intensity,[18]; [31],94.5 MFI
same,fluorescence intensity,[18]; [32],484 MFI
same,fluorescence intensity,[18]; [25],1990 MFI
same,fluorescence intensity,[18]; [26],3600 MFI
same,fluorescence intensity,[19]; [27],28 MFI
same,fluorescence intensity,[19]; [28],26 MFI
same,fluorescence intensity,[19]; [29],28.5 MFI
same,fluorescence intensity,[19]; [30],38 MFI
same,fluorescence intensity,[19]; [31],112 MFI
same,fluorescence intensity,[19]; [32],535 MFI
same,fluorescence intensity,[19]; [25],2210 MFI
same,fluorescence intensity,[19]; [26],4650 MFI
same,fluorescence intensity,[20]; [27],26 MFI
same,fluorescence intensity,[20]; [28],26.5 MFI
same,fluorescence intensity,[20]; [29],27.2 MFI
same,fluorescence intensity,[20]; [30],34 MFI
same,fluorescence intensity,[20]; [31],104 MFI
same,fluorescence intensity,[20]; [32],403 MFI
same,fluorescence intensity,[20]; [25],1310 MFI
same,fluorescence intensity,[20]; [26],2260 MFI
same,fluorescence intensity,[21]; [27],18.2 MFI
same,fluorescence intensity,[21]; [28],18.2 MFI
same,fluorescence intensity,[21]; [29],19 MFI
same,fluorescence intensity,[21]; [30],24.5 MFI
same,fluorescence intensity,[21]; [31],81.5 MFI
same,fluorescence intensity,[21]; [32],445 MFI
same,fluorescence intensity,[21]; [25],1910 MFI
same,fluorescence intensity,[21]; [26],3140 MFI
same,fluorescence intensity,[22]; [27],18.5 MFI
same,fluorescence intensity,[22]; [28],18 MFI
same,fluorescence intensity,[22]; [29],19 MFI
same,fluorescence intensity,[22]; [30],22.8 MFI
same,fluorescence intensity,[22]; [31],41 MFI
same,fluorescence intensity,[22]; [32],129 MFI
same,fluorescence intensity,[22]; [25],498 MFI
same,fluorescence intensity,[22]; [26],1090 MFI
same,fluorescence intensity,[23]; [27],16.5 MFI
same,fluorescence intensity,[23]; [28],17 MFI
same,fluorescence intensity,[23]; [29],21.5 MFI
same,fluorescence intensity,[23]; [30],46.8 MFI
same,fluorescence intensity,[23]; [31],217 MFI
same,fluorescence intensity,[23]; [32],1070 MFI
same,fluorescence intensity,[23]; [25],3530 MFI
same,fluorescence intensity,[23]; [26],5800 MFI
same,fluorescence intensity,[24]; [27],26 MFI
same,fluorescence intensity,[24]; [28],22.2 MFI

# For reference, some entries already given.
binder,measurement,setting,value
B1,fluorescence intensity,[17]; [32],561 MFI
same,fluorescence intensity,[17]; [25],2070 MFI
same,fluorescence intensity,[17]; [26],2980 MFI
same,fluorescence intensity,[18]; [27],15 MFI
same,fluorescence intensity,[18]; [28],16.5 MFI
same,fluorescence intensity,[18]; [29],17 MFI

# Pulled one by one from the entries so far, 4 records:
binder,measurement,setting,value
B1,fluorescence intensity,[4]; [29],13.5 MFI
same,fluorescence intensity,[11]; [30],18 MFI
same,fluorescence intensity,[7]; [28],27 MFI
same,fluorescence intensity,[7]; [32],62.5 MFI

# Another view of some results above.
binder	measurement	setting	value
B1	fluorescence intensity	[5]; [29]	16.8 MFI
same	fluorescence intensity	[5]; [30]	27 MFI
same	fluorescence intensity	[5]; [31]	108 MFI
